{"sequences": {"note": "Sequences of proteins named here, by UniProt entry; tags and fusion partners are left off. A change or cut given only in a name is not applied to a line headed by its entry. Residues count along the entry.", "UniProt Q86YS7, 816-844": "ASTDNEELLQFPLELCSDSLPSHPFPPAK", "UniProt Q8NFC6, 867-895": "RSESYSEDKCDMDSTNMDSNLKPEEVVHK", "UniProt O75808, 250-272": "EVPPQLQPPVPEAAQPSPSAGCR", "UniProt P35520, 337-359": "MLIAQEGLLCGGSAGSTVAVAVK", "UniProt Q13137": "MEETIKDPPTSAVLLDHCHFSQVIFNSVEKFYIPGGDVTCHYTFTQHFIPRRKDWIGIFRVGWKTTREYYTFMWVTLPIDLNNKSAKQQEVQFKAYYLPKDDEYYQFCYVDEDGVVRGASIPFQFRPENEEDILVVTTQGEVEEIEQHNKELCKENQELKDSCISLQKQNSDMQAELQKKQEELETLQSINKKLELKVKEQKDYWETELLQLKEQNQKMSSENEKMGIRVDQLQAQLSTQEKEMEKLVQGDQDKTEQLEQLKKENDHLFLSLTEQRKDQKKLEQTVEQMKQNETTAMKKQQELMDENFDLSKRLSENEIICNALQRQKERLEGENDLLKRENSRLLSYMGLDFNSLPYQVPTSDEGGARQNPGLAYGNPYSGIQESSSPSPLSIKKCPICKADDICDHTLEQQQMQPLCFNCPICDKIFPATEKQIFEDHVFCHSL", "UniProt Q86X55, 62-81": "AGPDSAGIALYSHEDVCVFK", "UniProt O14981": "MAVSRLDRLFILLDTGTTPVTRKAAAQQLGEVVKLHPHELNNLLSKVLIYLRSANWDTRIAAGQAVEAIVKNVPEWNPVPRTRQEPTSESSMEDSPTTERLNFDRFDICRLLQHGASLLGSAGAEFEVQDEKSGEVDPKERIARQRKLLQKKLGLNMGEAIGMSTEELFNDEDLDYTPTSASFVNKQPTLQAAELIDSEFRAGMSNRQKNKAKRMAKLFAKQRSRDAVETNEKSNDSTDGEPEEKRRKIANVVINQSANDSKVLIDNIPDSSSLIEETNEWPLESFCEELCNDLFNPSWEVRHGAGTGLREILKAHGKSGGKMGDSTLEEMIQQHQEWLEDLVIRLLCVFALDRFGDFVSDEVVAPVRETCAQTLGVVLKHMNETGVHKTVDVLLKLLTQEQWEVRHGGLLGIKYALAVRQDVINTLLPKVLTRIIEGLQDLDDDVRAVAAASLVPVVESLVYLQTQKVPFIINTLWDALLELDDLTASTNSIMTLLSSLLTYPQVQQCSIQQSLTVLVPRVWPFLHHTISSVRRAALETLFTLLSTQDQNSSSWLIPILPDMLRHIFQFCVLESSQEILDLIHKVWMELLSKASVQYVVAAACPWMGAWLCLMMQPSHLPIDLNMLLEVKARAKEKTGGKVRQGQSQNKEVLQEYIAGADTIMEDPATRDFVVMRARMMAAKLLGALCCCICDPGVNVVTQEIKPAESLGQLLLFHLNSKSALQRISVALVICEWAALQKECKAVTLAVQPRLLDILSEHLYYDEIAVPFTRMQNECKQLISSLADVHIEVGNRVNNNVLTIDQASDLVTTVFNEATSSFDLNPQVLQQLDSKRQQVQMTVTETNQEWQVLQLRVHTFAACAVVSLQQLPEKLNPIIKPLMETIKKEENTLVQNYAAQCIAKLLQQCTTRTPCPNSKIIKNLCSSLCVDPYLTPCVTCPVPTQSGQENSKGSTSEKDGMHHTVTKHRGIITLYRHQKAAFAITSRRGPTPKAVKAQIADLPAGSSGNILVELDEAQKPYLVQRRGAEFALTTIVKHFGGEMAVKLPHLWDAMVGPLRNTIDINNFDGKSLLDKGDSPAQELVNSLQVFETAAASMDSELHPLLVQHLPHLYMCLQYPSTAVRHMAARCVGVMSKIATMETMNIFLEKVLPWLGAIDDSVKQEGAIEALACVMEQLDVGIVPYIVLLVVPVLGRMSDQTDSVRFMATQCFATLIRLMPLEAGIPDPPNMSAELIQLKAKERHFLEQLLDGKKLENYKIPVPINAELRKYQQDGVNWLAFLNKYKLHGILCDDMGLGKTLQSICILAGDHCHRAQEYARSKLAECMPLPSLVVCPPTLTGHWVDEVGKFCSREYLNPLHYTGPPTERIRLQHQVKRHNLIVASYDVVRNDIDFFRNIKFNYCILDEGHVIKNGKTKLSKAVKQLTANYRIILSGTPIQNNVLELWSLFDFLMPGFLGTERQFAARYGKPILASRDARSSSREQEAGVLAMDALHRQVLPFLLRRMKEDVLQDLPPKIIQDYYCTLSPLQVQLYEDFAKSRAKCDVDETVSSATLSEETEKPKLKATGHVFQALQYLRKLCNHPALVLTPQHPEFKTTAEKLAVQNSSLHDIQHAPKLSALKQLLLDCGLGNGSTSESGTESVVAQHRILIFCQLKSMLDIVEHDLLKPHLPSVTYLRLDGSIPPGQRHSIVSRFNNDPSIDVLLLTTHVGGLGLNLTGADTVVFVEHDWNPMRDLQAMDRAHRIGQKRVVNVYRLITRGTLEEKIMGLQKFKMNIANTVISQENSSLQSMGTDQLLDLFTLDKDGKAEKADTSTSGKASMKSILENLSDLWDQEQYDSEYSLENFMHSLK", "UniProt Q9NPI1": "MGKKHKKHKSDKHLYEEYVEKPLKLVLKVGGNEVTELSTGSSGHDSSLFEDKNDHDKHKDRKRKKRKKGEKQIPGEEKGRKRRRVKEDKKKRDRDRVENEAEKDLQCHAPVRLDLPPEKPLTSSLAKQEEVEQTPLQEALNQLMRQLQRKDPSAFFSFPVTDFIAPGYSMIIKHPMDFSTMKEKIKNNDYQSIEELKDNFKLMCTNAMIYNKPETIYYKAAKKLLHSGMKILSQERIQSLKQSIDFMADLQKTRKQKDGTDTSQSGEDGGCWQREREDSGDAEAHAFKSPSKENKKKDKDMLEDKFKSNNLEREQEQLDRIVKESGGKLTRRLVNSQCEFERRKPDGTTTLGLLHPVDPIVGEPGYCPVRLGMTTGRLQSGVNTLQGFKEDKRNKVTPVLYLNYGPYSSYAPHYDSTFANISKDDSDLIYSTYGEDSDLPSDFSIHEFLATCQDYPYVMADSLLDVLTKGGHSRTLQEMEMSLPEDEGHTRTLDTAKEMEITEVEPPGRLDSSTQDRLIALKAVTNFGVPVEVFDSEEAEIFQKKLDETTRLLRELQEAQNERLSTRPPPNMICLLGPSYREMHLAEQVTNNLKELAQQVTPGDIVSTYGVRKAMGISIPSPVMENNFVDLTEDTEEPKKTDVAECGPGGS", "UniProt O43683": "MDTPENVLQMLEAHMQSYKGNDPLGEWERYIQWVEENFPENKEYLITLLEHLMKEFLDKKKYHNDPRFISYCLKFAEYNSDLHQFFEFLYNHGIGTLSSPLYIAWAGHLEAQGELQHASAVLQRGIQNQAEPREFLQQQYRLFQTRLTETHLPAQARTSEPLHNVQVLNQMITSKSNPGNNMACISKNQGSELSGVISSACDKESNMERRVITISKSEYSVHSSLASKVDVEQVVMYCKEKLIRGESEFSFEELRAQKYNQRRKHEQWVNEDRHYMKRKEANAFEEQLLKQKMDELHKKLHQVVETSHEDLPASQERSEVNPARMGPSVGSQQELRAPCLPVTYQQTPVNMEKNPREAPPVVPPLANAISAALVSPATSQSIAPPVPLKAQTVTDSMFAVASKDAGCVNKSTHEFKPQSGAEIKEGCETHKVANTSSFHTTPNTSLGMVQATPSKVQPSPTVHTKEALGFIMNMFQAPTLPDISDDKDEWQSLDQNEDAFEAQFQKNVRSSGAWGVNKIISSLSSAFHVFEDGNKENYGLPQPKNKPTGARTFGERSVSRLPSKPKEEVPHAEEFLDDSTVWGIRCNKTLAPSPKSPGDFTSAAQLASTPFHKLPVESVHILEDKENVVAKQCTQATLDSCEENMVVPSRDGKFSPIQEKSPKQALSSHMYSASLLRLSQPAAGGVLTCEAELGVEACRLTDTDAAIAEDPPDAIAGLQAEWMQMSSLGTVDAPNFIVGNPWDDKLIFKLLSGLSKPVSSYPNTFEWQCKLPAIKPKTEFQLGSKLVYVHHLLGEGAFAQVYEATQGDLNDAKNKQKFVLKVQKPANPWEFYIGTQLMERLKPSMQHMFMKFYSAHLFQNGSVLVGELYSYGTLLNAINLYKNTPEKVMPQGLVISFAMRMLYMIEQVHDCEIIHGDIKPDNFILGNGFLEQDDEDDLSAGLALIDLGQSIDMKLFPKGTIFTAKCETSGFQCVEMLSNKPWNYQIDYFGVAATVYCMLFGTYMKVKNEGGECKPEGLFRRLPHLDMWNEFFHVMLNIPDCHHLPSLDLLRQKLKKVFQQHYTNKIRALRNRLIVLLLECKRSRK", "UniProt Q9Y6J0": "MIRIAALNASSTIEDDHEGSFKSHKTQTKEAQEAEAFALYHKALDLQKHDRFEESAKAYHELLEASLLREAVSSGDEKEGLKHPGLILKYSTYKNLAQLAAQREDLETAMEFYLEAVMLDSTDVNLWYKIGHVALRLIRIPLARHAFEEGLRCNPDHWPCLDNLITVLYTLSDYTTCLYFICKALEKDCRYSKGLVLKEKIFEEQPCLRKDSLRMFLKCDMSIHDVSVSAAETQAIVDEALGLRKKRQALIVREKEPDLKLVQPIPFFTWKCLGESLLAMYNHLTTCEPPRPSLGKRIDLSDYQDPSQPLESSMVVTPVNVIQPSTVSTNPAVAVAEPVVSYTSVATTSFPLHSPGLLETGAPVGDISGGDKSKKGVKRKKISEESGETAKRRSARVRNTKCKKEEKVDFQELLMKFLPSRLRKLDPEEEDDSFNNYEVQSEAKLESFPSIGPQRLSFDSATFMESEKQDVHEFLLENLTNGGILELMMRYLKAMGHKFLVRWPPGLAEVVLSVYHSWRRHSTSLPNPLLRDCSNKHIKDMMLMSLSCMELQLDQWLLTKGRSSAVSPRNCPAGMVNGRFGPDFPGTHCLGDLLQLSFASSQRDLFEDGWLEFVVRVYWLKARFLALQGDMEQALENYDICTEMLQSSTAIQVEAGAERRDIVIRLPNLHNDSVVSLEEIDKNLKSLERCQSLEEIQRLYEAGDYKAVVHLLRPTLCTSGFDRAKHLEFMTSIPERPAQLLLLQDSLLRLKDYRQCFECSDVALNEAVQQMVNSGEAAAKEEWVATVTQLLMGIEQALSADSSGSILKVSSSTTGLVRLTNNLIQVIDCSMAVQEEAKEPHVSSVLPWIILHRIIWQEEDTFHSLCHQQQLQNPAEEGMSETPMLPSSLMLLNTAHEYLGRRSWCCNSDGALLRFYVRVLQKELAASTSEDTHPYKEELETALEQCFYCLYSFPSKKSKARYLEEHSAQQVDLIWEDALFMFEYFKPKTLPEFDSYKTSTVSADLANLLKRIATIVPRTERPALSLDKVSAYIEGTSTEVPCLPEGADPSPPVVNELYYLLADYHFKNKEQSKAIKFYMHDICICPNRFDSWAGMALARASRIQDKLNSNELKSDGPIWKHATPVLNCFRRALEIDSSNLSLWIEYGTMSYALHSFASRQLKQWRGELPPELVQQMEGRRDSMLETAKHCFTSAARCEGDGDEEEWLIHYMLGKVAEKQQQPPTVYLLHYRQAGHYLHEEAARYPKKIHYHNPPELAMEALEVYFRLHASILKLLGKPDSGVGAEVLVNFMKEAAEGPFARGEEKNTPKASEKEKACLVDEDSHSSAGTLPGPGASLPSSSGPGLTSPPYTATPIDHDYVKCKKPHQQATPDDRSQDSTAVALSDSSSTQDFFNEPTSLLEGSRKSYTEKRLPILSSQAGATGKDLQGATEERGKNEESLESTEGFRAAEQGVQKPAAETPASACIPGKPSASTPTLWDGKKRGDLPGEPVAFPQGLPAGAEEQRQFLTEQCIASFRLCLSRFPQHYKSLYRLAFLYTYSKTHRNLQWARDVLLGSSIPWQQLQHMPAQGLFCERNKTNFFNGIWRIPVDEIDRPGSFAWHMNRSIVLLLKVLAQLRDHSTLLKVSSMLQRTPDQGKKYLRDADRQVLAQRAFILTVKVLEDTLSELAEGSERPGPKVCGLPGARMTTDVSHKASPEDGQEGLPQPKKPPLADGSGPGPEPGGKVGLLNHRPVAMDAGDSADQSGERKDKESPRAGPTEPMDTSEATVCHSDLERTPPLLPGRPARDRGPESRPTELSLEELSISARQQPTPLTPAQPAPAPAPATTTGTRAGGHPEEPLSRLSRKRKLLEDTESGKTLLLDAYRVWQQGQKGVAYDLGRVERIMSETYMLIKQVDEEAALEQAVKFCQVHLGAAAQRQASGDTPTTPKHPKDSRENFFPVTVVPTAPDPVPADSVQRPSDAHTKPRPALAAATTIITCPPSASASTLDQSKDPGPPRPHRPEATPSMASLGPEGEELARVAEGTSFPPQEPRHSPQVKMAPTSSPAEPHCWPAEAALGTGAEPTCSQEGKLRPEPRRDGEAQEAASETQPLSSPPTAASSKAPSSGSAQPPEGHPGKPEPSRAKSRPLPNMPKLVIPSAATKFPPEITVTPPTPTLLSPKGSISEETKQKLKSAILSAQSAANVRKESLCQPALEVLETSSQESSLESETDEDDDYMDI", "UniProt Q8N350, 178-202": "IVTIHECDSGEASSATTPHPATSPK"}, "source": "the supplement of paper PMC11732987", "about": "“Enantioselective OTUD7B fragment discovery through chemoproteomics screening and high-throughput optimisation” (Communications Chemistry, 2025)", "note": "Some of the results follow. The data scatter; read single values as rough."}
{"compound": "ClCC(=O)N[C@@H]1CCCc2ccccc12", "test": "log2 mean competition ratio of IA-DTB cysteine labelling (DMSO/compound) (log2 ratio); higher = stronger cysteine engagement by compound", "conditions": "50 µM; treatment time: 4 h; cell line lysate: HEK293T", "description": "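IA-DTB competitive cysteine chemoproteomics in HEK293T RIPA lysate. Lysates were treated with compound 29 or 30 at 50 or 200 µM for 4 h, then IA-DTB (500 µM, 1 h), trypsin-digested, NeutrAvidin-enriched and analysed by diaPASEF. Competition ratio = intensity DMSO / intensity compound (n=4 treated, n=64 DMSO); binding: mean log2 CR ≥ 1 and p ≤ 0.05 plus QC filters. Target is the cysteine site.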"}
{"target": "CARMIL1 C1106", "log2 mean competition ratio": 0.0789}
{"target": "C2CD5 C831 (UniProt Q86YS7)", "log2 mean competition ratio": 0.481}
{"target": "BRF1 C430 (UniProt Q92994)", "log2 mean competition ratio": -0.173}
{"target": "BRCA1 C712 (UniProt P38398)", "log2 mean competition ratio": -0.177}
{"target": "CAPZB C62 (UniProt P47756)", "log2 mean competition ratio": 0.194}
{"target": "BOD1L1 C1170 (UniProt Q8NFC6)", "log2 mean competition ratio": -0.265}
{"target": "CAPN15 C271 (UniProt O75808)", "log2 mean competition ratio": -0.329}
{"target": "BOD1L1 C876 (UniProt Q8NFC6)", "log2 mean competition ratio": -0.253}
{"target": "CAD C897", "log2 mean competition ratio": -0.0904}
{"target": "CBS C346 (UniProt P35520)", "log2 mean competition ratio": -0.379}
{"target": "CBWD1 C310 (UniProt Q9BRT8)", "log2 mean competition ratio": -0.124}
{"target": "CALCOCO2 C321 (UniProt Q13137)", "log2 mean competition ratio": -0.186}
{"target": "BRIP1 C1164 (UniProt Q9BX63)", "log2 mean competition ratio": -0.0056}
{"target": "CARM1 C78 (UniProt Q86X55)", "log2 mean competition ratio": -0.243}
{"target": "BTAF1 C1401 (UniProt O14981)", "log2 mean competition ratio": 0.065}
{"target": "CBX4 C185 (UniProt O00257)", "log2 mean competition ratio": -0.0989}
{"target": "BRD7 C271 (UniProt Q9NPI1)", "log2 mean competition ratio": 0.183}
{"target": "CAMK2G C290 (UniProt Q13555)", "log2 mean competition ratio": -0.166}
{"target": "BTF3 C22 (UniProt P20290)", "log2 mean competition ratio": 0.205}
{"target": "CAMK2D C273 (UniProt Q13557)", "log2 mean competition ratio": 0.161}
{"target": "CADPS2 C1097", "log2 mean competition ratio": -0.00684}
{"target": "BUB1 C407 (UniProt O43683)", "log2 mean competition ratio": -0.131}
{"target": "CABIN1 C1197 (UniProt Q9Y6J0)", "log2 mean competition ratio": -0.237}
{"target": "BTAF1 C900 (UniProt O14981)", "log2 mean competition ratio": 0.0508}
{"target": "CARS2 C387 (UniProt Q9HA77)", "log2 mean competition ratio": -0.212}
{"target": "CBL C508 (UniProt P22681)", "log2 mean competition ratio": 0.0586}
{"target": "CBARP C184 (UniProt Q8N350)", "log2 mean competition ratio": -0.0731}
{"target": "CAPN1 C351", "log2 mean competition ratio": 0.0945}
